Data as given in PubChem BioAssay AID1259254 (NCATS, 2017)
The deposit covers about 59,000 reagents; shown is a part drawn at random. About 1,550 of them (2.6%) were called active. 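G2 share is only a proxy for re-replication; each gene was hit by three separate siRNAs, and active genes were retested.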 A number with no mark means an inactive call. Reagents against one gene are numbered here. Further read-outs or replicates are left out here. Not given: the amount of reagent.

Test: 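Finding genes that stop cells copying their DNA twice in one cycle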 (primary screen)
System: human HCT116 colorectal cancer cells
Reagent: single siRNA against human genes
Time to read-out: 3 days
Detection: 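Nuclei stained with Hoechst and imaged; cell-cycle phase assigned by DNA content; G2 share scaled per plate, non-targeting siRNA 0%, GMNN siRNA 100%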
Direction: G2 robust z-score and G2 cells, % of GMNN control: higher = more G2 cells, more excess DNA replication
Rule for the call: 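An siRNA counts as active if its G2 robust z-score lies at least 5 MADs above the screen median; here such calls match roughly 38% of GMNN control or more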

ADGRB3 #1 — G2 robust z-score: -0.769; G2 cells, % of GMNN control: -2.44
ADGRB3 #2 — G2 robust z-score: 2.24; G2 cells, % of GMNN control: 18.7
ADGRB3 #3 — G2 robust z-score: 2.61; G2 cells, % of GMNN control: 21.3
LINC00326 #1 — G2 robust z-score: 0.147; G2 cells, % of GMNN control: 4
LINC00326 #2 — G2 robust z-score: -0.715; G2 cells, % of GMNN control: -2.06
LINC00326 #3 — G2 robust z-score: -0.319; G2 cells, % of GMNN control: 0.724
SYNGR4 #1 — G2 robust z-score: 4.63; G2 cells, % of GMNN control: 35.6
SYNGR4 #2 — G2 robust z-score: -0.392; G2 cells, % of GMNN control: 0.208
SYNGR4 #3 — G2 robust z-score: 1.2; G2 cells, % of GMNN control: 11.4
EML2 #1 — G2 robust z-score: -0.371; G2 cells, % of GMNN control: 0.356
EML2 #2 — G2 robust z-score: -0.681; G2 cells, % of GMNN control: -1.83
EML2 #3 — G2 robust z-score: 1.68; G2 cells, % of GMNN control: 14.8
LINC03042 #1 — G2 robust z-score: -0.785; G2 cells, % of GMNN control: -2.56
LINC03042 #2 — G2 robust z-score: 0.718; G2 cells, % of GMNN control: 8.02
LINC03042 #3 — G2 robust z-score: 0.632; G2 cells, % of GMNN control: 7.41
FOXP3 #1 — G2 robust z-score: -0.814; G2 cells, % of GMNN control: -2.76
FOXP3 #2 — G2 robust z-score: 0.449; G2 cells, % of GMNN control: 6.13
FOXP3 #3 — G2 robust z-score: 0.0918; G2 cells, % of GMNN control: 3.61
TSFM #1 — G2 robust z-score: 0.871; G2 cells, % of GMNN control: 9.1
TSFM #2 — G2 robust z-score: 0.766; G2 cells, % of GMNN control: 8.36
TSFM #3 — G2 robust z-score: 1.32; G2 cells, % of GMNN control: 12.2
CCDC125 #1 — G2 robust z-score: -0.299; G2 cells, % of GMNN control: 0.862
CCDC125 #2 — G2 robust z-score: 3; G2 cells, % of GMNN control: 24.1
CCDC125 #3 — G2 robust z-score: -0.8; G2 cells, % of GMNN control: -2.66
ANAPC7 #1 — G2 robust z-score: -0.0896; G2 cells, % of GMNN control: 2.34
ANAPC7 #2 — G2 robust z-score: 5.24 (active); G2 cells, % of GMNN control: 39.8
ANAPC7 #3 — G2 robust z-score: -1.15; G2 cells, % of GMNN control: -5.14
TNNI3K #1 — G2 robust z-score: 0.78; G2 cells, % of GMNN control: 8.46
TNNI3K #2 — G2 robust z-score: -1.03; G2 cells, % of GMNN control: -4.25
TNNI3K #3 — G2 robust z-score: -0.431; G2 cells, % of GMNN control: -0.0661

Records above whose gene name starts with S or s (3):
SYNGR4 #1 — G2 robust z-score: 4.63; G2 cells, % of GMNN control: 35.6
SYNGR4 #2 — G2 robust z-score: -0.392; G2 cells, % of GMNN control: 0.208
SYNGR4 #3 — G2 robust z-score: 1.2; G2 cells, % of GMNN control: 11.4
